Source: article doi:10.1101/2025.09.29.679208
No constants are given. Whether binding was seen depends on the method and setting. Binding seen in cells or lysates may run through a third protein. Some binding calls cover weakened binding; strength is not graded here.

The chains behind the UniProt entries cited, without tags or fusion partners. Where a name states a change or a piece, a line headed by the entry shows the natural chain unless it says otherwise.
UniProt Q8N6T7: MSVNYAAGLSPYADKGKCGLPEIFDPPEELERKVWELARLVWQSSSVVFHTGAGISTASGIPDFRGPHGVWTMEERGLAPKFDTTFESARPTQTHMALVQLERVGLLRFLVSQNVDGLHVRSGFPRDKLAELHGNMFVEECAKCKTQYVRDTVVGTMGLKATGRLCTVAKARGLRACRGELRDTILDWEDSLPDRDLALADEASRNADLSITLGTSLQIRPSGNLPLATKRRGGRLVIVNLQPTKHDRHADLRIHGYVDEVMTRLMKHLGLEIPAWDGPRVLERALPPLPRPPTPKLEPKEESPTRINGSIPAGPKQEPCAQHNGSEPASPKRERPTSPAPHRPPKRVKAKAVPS
UniProt P08670: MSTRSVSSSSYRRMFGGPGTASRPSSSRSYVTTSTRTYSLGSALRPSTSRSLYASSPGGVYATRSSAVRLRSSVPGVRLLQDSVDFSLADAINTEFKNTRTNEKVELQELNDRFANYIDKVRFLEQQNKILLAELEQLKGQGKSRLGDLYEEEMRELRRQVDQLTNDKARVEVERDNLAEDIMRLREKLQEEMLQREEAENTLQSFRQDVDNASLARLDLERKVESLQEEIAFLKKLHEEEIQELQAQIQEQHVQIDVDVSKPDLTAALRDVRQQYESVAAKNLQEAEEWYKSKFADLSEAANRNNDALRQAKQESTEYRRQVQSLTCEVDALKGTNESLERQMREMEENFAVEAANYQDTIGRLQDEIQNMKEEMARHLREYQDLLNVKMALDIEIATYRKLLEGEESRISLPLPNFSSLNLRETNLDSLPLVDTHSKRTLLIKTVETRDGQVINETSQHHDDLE

Columns and labels:
[1] = target: Sirtuin 6 (SIRT6), wild type (human (endogenous in hMSCs)) (UniProt Q8N6T7); assay: co-IP
[2] = target: centenarian SIRT6 protein (CentSIRT6; N308K and A313S) (human (endogenous in hMSCs)) (UniProt Q8N6T7); assay: co-IP

vimentin (VIM) (from UniProt P08670 1-466)
binding [1]: binds | binding [2]: binds
